# Source: PubChem BioAssay AID686937 (Drosophila RNAi Screening Center, 2013)
# Purpose: 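Knock-downs that reduce output of a secreted reporter enzyme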 (primary screen)
# System: Drosophila S2 cells expressing secreted horseradish peroxidase
# Reagent: long dsRNA against Drosophila genes
# Time to read-out: about 5.5 days (5 days dsRNA, then 12 h reporter induction)
# Conditions: reporter expression induced after 5 days of dsRNA, read 12 h later; inducer not stated
# Detection: 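Chemiluminescent measurement of peroxidase in the medium 12 h after reporter induction, following 5 days of dsRNA, given as a z-score per plate; higher means more secretion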
# Reading the numbers: z-score: higher = more reporter secreted into medium
# In all, the deposit lists about 23,000 reagents; below is a random part of those with a known target gene and a result. 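Reduced-secretion tags in replicate 1 do not always agree with the z-scores; no criterion for assigning the tags was given.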 A plus sign joins genes that one reagent is predicted to hit. Not all columns of the deposit are shown. Reagent sequences are not shown. Not stated in the record: the amount of reagent.
target gene,amplicon,"z-score, replicate 1","z-score, replicate 2","z-score, replicate 3"
GstD8 (Glutathione S transferase D8),DRSC16689,0.4,0.56,
fig (fos intronic gene),DRSC16270,0.38,0.08,
CG4658,DRSC02768,0.84,0.72,
O-fut1 (O-fucosyltransferase 1),DRSC06138,0.32,0.3,
Dgp-1,DRSC07400,0.33,0.33,
CG30369,DRSC21996,0.03,-0.13,
mRpL1 (mitochondrial ribosomal protein L1),DRSC16251,-2.25,-0.44,
sv (shaven),DRSC17221,0.2,0.3,
mim (missing-in-metastasis),DRSC05013,-1.67,-1.49,
Tps1 (Trehalose-6-phosphate synthase 1),DRSC00269,0.19,0.27,
CG3408,DRSC10360,0.29,0.26,
Klp68D (Kinesin-like protein at 68D),DRSC11206,-0.11,-0.05,
sano (serrano),DRSC06165,0.29,0.19,
CG1213,DRSC12191,0.33,0.34,
KaiR1D (Kainate-type ionotropic glutamate receptor subunit 1D),DRSC15516,0.25,0.23,
CG6005,DRSC15945,-6.21,0.2,
Desi (Desiccate),DRSC14909,0.21,0.09,
Drsl2 (Drosomycin-like 2),DRSC08160,0.25,0.12,
CG13055,DRSC09936,-0.14,-0.03,
CG7126,DRSC16201,0.1,0.38,
Ir48b (Ionotropic receptor 48b),DRSC06320,0.58,0.31,
CG6149,DRSC10593,0.26,0.3,
lilli (lilliputian),DRSC00708,-4.15,0.46,0.25
ECSIT,DRSC12348,0.1,0.42,
CG17343,DRSC02606,0.17,0.32,
CG17343,DRSC22807,-0.54,-0.37,
CG13334,DRSC06369,0.03,0.32,
CG4669,DRSC10440,0.5,0.39,
CG12347,DRSC14502,0.34,0.3,
CG1503,DRSC20512,0.3,0.26,
CG33635,DRSC00006,-0.8,0.26,
GluRIIA (Glutamate receptor IIA),DRSC03334,-0.32,0.23,
Ir87a (Ionotropic receptor 87a),DRSC14836,0.66,0.09,
CG14573,DRSC11734,0.25,0.27,
"SmydA-3 (SET and MYND domain containing, arthropod-specific, member 3)",DRSC02565,-0.27,0.14,
"SmydA-3 (SET and MYND domain containing, arthropod-specific, member 3)",DRSC02566,-0.51,-0.44,
CG43062,DRSC12866,0.37,0.23,
CG8249,DRSC07125,0.45,0.32,
CG11456,DRSC11665,0.33,0.23,
unc79 (uncoordinated 79),DRSC15746,0.05,0.19,
Tom7 (Translocase of outer membrane 7),DRSC05135,-0.16,,
Tom7 (Translocase of outer membrane 7),DRSC07113,0.34,0.22,
CG34398,DRSC01052,0.57,0.66,0.62
CG34398,DRSC02510,0.32,0.01,
CG34398,DRSC02511,0.12,0.41,
CG34398,DRSC03228,0.56,0.6,
vn (vein),DRSC11408,-0.05,-0.8,
lncRNA:CR43372 (long non-coding RNA:CR43372),DRSC15041,0.14,0.18,
CG32110,DRSC09220,0.18,0.19,
Tpl94D (Transition protein-like 94D),DRSC13593,0.51,0.49,
CG18249,DRSC15318,0.19,0.39,
Klp67A + CG34456,DRSC10420,0.25,0.48,
Ptth (Prothoracicotropic hormone),DRSC00356,0.13,0.14,
Wdr37 (WD repeat domain 37),DRSC14500,0.1,0.27,
stan (starry night),DRSC05234,-3.41,-3.52,
stan (starry night),DRSC07697,0.31,0.25,
Bub1 (Bub1 kinase),DRSC02357,0.32,0.36,
CG15754,DRSC19719,0.3,0.46,
CG3679,DRSC19346,0.41,0.34,
CG1789,DRSC18140,0.37,0.43,
swaPsi (swallow pseudogene),DRSC21685,-0.67,-0.12,
Ccdc58 + CG34116,DRSC10105,0.24,0.31,
CG7248,DRSC10788,0.35,0.23,
Dhc36C (Dynein heavy chain at 36C),DRSC03315,0.21,0.33,
ro (rough),DRSC17046,0.08,0.14,
CG8230,DRSC05931,0.19,0.12,
G9a,DRSC18619,0.3,0.37,
Eaf6 (Esa1-associated factor 6),DRSC09901,0.32,0.1,
CG43736,DRSC18370,-0.01,0.18,
CG43736,DRSC18371,0.3,0.52,
CG3270,DRSC04988,0.03,0.09,
slbo (slow border cells),DRSC04716,-1.18,-0.91,-0.75
Mob2,DRSC09117,-1.68,-0.85,
Mob2,DRSC09119,0.58,0.41,
Mob2,DRSC09856,0.63,0.2,
Roc1a (Regulator of cullins 1a),DRSC18483,-3.43,-3.2,
P32,DRSC06988,0.33,0.27,
CG2321,DRSC15439,0.6,0.58,
CG30280,DRSC21761,1.31,-0.47,
SppL (Signal peptide peptidase-like),DRSC15228,0.05,0.22,
CG32187,DRSC10521,0.18,0.24,
CG13039,DRSC09920,0.39,0.39,
luna,DRSC05253,0.8,0.28,
luna,DRSC06663,-2.92,-2.21,
luna,DRSC07336,0.23,0.14,0.49
Muc91C (Mucin 91C),DRSC16297,0.48,0.56,
Muc91C (Mucin 91C),DRSC21696,-2.62,0.02,
CG12992,DRSC19512,0.17,0.37,
CG18747,DRSC15384,-0.1,-0.05,
VhaAC39-2 (Vacuolar H[+] ATPase AC39 subunit 2),DRSC15609,0.27,0.33,
CG16974,DRSC02551,0.45,0.35,
CG9168,DRSC08633,0.35,0.31,
CG32085,DRSC10138,0.3,0.28,
CG32085,DRSC10139,0.19,0.06,
CG32085,DRSC10576,0.47,0.61,
Ccdc39 (Coiled-coil domain containing protein 39),DRSC12286,-0.13,0.19,
Cyp6a16Psi (retired record),DRSC03307,-0.4,-0.33,
CG42710,DRSC01034,-0.02,0.29,
lncRNA:CR43314 (long non-coding RNA::CR43314),DRSC01216,0.65,-0.13,
lncRNA:CR43314 (long non-coding RNA::CR43314),DRSC21354,0.17,-0.57,
CG8563,DRSC10996,0.28,0.31,
CG3706,DRSC18649,0.52,0.5,
mthl4 (methuselah-like 4),DRSC06998,0.56,0.26,
CG43072,DRSC11688,0.2,0.28,

11 entries from above, sorted by “z-score, replicate 1”, high to low.
target gene,amplicon,"z-score, replicate 1","z-score, replicate 2","z-score, replicate 3"
luna,DRSC05253,0.8,0.28,
Muc91C (Mucin 91C),DRSC16297,0.48,0.56,
CG16974,DRSC02551,0.45,0.35,
CG13039,DRSC09920,0.39,0.39,
CG9168,DRSC08633,0.35,0.31,
VhaAC39-2 (Vacuolar H[+] ATPase AC39 subunit 2),DRSC15609,0.27,0.33,
luna,DRSC07336,0.23,0.14,0.49
CG12992,DRSC19512,0.17,0.37,
CG18747,DRSC15384,-0.1,-0.05,
Muc91C (Mucin 91C),DRSC21696,-2.62,0.02,
luna,DRSC06663,-2.92,-2.21,
